These are yes or no findings as the source states them, for the method shown. For some assays here: Binding seen in cells or lysates may run through a third protein. Some binding calls cover weakened binding; strength is not graded here. For some assays here: Tags and fused reporters may be left off the sequences shown. One block for each binder: values may come before it.
How the values were obtained:
[1] = biological target: T1, phytochrome A (phyA), endogenous in Arabidopsis seedlings (Arabidopsis (endogenous in Col-0 seedlings)), P14712; assay: co-IP; protein extracts (2 mg) of Arabidopsis seedlings (Col-0, NTOX, CTOX) precipitated with PHYA monoclonal antibody beads, 4 h at 4°C; blots for PHYA, FIN219, COP1, GUS; seedlings dark-grown then 3 h FR, or 3 d dark or cFR with 50 μM MeJA, or 3 d FR light; details: remark: other sources report otherwise
T1 chain: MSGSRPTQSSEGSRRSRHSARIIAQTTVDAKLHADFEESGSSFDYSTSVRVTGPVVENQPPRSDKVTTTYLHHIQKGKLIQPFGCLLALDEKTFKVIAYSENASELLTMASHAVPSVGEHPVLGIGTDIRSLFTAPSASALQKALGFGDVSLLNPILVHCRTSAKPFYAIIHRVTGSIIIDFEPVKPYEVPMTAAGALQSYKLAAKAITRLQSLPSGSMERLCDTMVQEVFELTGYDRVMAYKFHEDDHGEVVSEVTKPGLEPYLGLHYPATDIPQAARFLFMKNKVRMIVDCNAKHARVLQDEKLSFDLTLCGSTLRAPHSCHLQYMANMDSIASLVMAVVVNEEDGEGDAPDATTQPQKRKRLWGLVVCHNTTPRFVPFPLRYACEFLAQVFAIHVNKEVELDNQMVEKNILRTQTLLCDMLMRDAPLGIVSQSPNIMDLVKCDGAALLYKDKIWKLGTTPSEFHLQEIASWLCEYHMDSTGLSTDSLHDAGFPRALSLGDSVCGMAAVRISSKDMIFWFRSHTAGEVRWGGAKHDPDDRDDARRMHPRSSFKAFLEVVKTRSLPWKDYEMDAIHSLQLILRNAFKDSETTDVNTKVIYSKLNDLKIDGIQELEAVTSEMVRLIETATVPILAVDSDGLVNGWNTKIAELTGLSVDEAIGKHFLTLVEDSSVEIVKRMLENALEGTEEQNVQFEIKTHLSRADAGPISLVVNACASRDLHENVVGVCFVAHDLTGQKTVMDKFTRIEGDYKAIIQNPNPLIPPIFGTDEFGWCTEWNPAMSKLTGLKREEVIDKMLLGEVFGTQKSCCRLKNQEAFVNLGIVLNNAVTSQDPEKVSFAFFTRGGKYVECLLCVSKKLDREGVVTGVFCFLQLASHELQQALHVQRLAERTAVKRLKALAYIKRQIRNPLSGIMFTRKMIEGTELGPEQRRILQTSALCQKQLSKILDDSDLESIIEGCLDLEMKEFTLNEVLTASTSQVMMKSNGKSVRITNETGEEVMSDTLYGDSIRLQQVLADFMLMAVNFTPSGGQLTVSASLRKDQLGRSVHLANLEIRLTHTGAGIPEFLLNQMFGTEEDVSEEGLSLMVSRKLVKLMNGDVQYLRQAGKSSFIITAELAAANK

[2] = biological target: T2, full-length FIN219/JAR1, yeast two-hybrid fusion (Arabidopsis) (UniProt Q9SKE2); assay: two-hybrid; yeast strain AH109; SD agar without His, Leu, Trp and adenine, X-α-gal, 30°C; PHYA deletions as prey with FIN219 as bait (S4A Fig), FIN219 deletions as prey with PHYA as bait (S4B Fig)
T2 sequence: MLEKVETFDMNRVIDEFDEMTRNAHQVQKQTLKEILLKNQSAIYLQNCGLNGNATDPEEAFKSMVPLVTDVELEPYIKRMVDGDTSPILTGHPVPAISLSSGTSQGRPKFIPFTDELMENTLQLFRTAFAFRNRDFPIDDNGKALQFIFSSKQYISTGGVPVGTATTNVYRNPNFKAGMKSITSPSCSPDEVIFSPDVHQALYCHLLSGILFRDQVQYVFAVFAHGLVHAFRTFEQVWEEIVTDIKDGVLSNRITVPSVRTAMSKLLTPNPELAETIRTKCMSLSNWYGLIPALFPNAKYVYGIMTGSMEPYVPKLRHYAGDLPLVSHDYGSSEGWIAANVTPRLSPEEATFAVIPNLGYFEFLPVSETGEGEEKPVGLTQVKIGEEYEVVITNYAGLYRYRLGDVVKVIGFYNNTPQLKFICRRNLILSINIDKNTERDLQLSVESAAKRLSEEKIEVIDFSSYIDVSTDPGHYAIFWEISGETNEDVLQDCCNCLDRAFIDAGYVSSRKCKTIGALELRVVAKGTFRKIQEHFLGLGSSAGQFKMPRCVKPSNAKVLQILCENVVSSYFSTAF

B1: CONSTITUTIVE PHOTOMORPHOGENIC 1 (COP1), endogenous in Arabidopsis seedlings, P43254 1-675 (protein)
chain: MEEISTDPVVPAVKPDPRTSSVGEGANRHENDDGGSGGSEIGAPDLDKDLLCPICMQIIKDAFLTACGHSFCYMCIITHLRNKSDCPCCSQHLTNNQLYPNFLLDKLLKKTSARHVSKTASPLDQFREALQRGCDVSIKEVDNLLTLLAERKRKMEQEEAERNMQILLDFLHCLRKQKVDELNEVQTDLQYIKEDINAVERHRIDLYRARDRYSVKLRMLGDDPSTRNAWPHEKNQIGFNSNSLSIRGGNFVGNYQNKKVEGKAQGSSHGLPKKDALSGSDSQSLNQSTVSMARKKRIHAQFNDLQECYLQKRRQLADQPNSKQENDKSVVRREGYSNGLADFQSVLTTFTRYSRLRVIAEIRHGDIFHSANIVSSIEFDRDDELFATAGVSRCIKVFDFSSVVNEPADMQCPIVEMSTRSKLSCLSWNKHEKNHIASSDYEGIVTVWDVTTRQSLMEYEEHEKRAWSVDFSRTEPSMLVSGSDDCKVKVWCTRQEASVINIDMKANICCVKYNPGSSNYIAVGSADHHIHYYDLRNISQPLHVFSGHKKAVSYVKFLSNNELASASTDSTLRLWDVKDNLPVRTFRGHTNEKNFVGLTVNSEYLACGSETNEVYVYHKEITRPVTSHRFGSPDMDDAEEEAGSYFISAVCWKSDSPTMLTANSQGTIKVLVLAA
binding [1]: binds

binding [2]: binds
B2: full-length PHYA (phytochrome A apoprotein), yeast two-hybrid fusion (protein, UniProt P14712 1-1122)
chain: T1 chain
